These results are taken from publication PMC11662661.

The test system of the series is Ml5 (Mesorhizobium loti). In words: EMSA. Conditions: recombinant protein.

For at least one entry, the source does not settle the construct or the ends of the probe. At least one verdict was read from the data and is not stated in words by the source.

With “AATTTAGAATGAAGTTATATTCAATATAAAAGTAGAATTTTGAAAATCGCTAATTATGAT (double strand) [babR60]”, for the setting “5 pmol DNA, letters put together from the description”, the binding result is “binds”.
As for “ATGAAGTTATATTCAATATAAAAGTAGAAT (double strand) [babR30]”, the binding result (preferred over NS) was “binds”.
